The supplement of paper PMC10849652
Some of the results follow.

Protein sequences, listed by entry. Tags and fused reporters are not part of them. Lines headed by an entry give the natural chain unless they say otherwise; changes in a name come on top.
UniProt Q9UQB8: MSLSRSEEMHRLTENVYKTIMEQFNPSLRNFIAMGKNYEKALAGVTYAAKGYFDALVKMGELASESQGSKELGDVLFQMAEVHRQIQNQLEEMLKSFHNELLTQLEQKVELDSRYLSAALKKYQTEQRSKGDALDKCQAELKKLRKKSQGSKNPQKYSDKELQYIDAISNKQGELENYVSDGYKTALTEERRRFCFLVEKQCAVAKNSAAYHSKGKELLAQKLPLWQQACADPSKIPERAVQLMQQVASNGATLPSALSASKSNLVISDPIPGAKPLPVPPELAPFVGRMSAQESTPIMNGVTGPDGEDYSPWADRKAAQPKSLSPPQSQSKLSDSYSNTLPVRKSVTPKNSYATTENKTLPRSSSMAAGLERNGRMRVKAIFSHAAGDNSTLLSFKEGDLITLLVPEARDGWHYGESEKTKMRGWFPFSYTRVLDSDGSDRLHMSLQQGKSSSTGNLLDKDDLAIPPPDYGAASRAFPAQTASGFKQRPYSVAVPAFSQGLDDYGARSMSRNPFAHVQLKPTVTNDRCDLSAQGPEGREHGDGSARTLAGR
UniProt P46379: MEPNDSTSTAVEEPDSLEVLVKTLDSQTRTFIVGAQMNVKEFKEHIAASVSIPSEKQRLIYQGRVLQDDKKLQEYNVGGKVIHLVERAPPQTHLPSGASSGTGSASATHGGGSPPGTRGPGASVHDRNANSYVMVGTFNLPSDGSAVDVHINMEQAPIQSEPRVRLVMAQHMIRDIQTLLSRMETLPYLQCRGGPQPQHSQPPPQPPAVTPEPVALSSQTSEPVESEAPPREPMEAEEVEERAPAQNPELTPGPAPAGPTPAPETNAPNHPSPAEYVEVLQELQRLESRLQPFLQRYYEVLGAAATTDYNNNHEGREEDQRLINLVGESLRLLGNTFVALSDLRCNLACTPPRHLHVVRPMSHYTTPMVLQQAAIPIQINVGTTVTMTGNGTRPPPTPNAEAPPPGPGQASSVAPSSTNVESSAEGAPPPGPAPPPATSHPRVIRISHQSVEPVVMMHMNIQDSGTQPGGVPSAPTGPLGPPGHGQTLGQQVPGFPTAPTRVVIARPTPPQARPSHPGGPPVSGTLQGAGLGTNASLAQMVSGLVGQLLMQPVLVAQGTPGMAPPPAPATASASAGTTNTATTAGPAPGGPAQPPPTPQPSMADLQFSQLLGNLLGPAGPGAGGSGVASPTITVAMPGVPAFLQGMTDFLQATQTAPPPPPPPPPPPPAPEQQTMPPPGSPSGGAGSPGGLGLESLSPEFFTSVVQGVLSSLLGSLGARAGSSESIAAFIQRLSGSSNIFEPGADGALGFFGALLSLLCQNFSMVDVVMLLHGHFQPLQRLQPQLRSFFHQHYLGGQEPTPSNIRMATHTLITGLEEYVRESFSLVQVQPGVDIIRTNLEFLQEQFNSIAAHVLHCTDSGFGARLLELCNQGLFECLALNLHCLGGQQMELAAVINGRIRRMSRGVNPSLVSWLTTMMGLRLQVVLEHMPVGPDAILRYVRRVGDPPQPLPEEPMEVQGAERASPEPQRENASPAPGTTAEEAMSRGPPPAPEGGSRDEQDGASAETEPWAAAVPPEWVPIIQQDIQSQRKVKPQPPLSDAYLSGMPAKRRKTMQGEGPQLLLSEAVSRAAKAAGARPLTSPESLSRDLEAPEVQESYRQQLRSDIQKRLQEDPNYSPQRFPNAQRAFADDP
UniProt Q9BQE9, whole entry, looked up: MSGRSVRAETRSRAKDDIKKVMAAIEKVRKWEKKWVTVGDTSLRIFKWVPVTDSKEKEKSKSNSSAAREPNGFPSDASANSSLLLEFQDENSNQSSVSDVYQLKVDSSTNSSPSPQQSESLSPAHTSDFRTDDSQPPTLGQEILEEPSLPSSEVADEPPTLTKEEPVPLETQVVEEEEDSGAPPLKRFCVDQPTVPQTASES
UniProt Q7KYR7: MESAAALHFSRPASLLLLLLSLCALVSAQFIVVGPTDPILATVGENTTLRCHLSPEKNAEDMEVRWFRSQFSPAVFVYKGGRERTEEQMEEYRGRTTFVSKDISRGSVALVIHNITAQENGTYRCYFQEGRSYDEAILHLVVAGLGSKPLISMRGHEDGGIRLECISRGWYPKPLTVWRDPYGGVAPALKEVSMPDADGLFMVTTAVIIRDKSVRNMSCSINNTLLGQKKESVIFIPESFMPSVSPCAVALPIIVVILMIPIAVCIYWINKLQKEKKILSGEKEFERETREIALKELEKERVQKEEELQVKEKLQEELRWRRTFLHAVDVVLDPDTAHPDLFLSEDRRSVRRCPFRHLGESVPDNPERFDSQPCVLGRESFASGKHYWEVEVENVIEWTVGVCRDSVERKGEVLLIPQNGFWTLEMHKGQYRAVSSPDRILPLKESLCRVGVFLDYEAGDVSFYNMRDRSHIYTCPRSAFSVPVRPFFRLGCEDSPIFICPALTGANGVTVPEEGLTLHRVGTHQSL
UniProt Q92843: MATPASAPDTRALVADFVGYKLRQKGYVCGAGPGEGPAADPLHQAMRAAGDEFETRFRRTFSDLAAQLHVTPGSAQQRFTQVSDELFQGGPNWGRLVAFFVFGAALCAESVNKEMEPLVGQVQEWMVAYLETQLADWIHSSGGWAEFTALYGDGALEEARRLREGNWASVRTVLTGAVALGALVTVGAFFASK
UniProt Q86WA6: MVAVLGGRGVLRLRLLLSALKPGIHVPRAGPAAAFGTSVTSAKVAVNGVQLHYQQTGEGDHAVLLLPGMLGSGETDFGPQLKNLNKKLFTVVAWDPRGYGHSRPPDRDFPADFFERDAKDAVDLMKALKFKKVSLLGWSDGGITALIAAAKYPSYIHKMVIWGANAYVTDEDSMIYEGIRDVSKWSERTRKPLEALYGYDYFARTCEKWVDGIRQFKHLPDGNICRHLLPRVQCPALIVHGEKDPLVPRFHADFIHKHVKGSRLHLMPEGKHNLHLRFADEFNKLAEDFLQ
UniProt O15155: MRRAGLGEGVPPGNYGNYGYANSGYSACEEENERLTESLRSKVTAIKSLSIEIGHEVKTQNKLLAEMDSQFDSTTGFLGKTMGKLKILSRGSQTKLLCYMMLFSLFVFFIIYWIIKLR
UniProt Q96GS4: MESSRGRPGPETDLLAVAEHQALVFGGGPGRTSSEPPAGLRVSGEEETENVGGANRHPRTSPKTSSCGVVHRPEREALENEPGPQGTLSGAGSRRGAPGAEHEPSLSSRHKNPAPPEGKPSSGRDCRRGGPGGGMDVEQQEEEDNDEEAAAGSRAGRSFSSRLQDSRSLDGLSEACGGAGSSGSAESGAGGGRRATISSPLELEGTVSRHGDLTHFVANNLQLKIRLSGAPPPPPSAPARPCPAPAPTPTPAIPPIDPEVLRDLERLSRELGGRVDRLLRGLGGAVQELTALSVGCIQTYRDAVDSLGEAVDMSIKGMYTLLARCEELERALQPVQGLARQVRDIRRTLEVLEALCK
UniProt O15392, whole entry, looked up: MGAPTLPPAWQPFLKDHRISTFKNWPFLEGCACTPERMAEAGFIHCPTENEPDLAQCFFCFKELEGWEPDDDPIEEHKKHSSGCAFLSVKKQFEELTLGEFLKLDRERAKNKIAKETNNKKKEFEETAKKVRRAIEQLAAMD
UniProt P56945: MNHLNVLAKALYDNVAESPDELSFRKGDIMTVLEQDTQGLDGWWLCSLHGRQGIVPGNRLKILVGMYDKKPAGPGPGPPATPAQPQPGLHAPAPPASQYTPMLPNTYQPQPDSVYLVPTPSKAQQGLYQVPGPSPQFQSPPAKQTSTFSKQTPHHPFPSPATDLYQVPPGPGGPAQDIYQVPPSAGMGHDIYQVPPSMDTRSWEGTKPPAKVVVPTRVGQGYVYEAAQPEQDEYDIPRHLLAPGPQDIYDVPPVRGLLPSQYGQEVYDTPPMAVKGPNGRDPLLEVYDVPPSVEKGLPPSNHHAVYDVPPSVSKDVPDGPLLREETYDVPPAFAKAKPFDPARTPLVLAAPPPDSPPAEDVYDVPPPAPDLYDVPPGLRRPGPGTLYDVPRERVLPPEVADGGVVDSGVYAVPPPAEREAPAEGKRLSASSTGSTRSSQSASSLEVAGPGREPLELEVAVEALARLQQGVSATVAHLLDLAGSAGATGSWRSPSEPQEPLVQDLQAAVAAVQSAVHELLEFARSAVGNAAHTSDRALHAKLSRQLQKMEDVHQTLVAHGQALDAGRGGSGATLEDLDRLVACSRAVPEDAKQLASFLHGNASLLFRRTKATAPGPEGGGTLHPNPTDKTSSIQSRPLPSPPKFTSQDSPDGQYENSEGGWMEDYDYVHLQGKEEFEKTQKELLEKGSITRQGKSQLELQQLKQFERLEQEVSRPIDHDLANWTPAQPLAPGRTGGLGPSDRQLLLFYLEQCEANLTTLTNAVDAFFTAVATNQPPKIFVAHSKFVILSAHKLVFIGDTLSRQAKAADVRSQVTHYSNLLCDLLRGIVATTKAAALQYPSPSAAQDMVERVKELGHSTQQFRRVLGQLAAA
UniProt O95816: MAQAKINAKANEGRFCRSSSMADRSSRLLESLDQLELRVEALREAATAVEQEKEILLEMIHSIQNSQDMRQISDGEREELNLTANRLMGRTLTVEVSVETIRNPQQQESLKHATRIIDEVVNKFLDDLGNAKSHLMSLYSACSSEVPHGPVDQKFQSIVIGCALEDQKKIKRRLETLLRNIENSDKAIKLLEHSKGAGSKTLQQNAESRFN
UniProt Q99728: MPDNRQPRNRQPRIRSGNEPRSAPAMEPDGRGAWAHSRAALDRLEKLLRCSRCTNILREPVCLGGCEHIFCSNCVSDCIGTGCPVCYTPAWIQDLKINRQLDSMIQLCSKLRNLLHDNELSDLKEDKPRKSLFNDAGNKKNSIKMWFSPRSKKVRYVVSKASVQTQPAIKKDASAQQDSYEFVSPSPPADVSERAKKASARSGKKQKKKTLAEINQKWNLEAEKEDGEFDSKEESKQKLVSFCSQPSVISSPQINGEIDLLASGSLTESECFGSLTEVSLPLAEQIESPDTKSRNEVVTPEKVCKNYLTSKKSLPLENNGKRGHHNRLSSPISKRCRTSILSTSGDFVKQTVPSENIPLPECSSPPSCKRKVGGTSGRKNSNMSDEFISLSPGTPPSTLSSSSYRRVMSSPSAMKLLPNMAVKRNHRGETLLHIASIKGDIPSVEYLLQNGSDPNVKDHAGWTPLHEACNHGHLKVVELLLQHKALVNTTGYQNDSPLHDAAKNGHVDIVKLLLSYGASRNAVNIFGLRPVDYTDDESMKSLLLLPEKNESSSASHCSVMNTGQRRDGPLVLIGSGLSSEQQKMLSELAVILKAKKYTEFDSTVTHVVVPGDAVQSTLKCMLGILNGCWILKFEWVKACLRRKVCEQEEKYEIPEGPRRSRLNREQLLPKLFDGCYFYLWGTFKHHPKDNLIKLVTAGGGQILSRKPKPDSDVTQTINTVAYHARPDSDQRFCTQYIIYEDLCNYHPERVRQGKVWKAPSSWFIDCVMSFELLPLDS
UniProt P35613: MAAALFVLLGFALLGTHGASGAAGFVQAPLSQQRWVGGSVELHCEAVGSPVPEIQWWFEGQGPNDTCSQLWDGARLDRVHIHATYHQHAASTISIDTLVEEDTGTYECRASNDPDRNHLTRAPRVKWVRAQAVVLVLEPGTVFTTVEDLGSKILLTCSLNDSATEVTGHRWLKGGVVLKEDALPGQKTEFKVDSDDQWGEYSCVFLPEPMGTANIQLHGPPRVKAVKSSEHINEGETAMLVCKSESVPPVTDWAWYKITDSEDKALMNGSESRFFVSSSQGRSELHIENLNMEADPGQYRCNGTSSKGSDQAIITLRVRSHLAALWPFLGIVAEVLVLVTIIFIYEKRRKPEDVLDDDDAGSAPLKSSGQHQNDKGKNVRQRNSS
UniProt O75934: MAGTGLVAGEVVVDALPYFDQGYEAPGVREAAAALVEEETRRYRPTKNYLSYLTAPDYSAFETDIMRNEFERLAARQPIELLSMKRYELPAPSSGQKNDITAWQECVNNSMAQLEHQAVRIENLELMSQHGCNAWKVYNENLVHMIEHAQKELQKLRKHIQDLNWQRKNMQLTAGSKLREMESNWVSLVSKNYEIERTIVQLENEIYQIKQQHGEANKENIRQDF
UniProt P21953: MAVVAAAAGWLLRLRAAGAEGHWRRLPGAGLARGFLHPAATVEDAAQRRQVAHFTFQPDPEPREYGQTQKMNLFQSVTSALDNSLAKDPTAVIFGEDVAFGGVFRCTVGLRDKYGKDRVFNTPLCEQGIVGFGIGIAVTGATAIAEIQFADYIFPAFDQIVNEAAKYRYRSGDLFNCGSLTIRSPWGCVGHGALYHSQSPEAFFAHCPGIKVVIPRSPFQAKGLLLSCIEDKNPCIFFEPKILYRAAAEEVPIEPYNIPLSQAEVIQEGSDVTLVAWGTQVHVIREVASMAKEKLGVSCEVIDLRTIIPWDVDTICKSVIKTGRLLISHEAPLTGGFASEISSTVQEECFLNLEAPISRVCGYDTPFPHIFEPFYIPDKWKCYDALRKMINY
UniProt P55957: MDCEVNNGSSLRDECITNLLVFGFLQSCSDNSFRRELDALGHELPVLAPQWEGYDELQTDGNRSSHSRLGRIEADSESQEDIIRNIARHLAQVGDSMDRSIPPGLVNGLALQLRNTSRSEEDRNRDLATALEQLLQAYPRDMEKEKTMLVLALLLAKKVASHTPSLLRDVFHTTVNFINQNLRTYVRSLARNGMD

compound: C1CCN(C1)C(=O)NC2=CC=CC(=C2)NC3=NC=C(C(=N3)NCCC4=CN=CN4)Br; assay: log2 fold change, soluble protein after heating vs DMSO (PISA); higher = thermal stabilisation; K562 lysate, 10 uM; active = over 0.2 and 3.5 SD of the protein, either way, in both replicates (recomputed)
How it was run: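 Quantification was by TMTpro 16plex LC-MS/MS with equalised channel sums, applied to the supernatant after 21,000xg for 90 min. Samples were crude K562 extract at 1 mg/mL protein in PBS pH 7.4 with 1 mM MgCl2, treated with 10 μM compound for 30 min, heated for 3 min across 48°C-58°C, pooled and brought to 0.5% NP-40 at 4°C. Values are log-two fold changes in thermal stability relative to solvent controls, from duplicates.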

log2 fold change, inactive:
BRD8 isoform 2 (UniProt Q9H0E9) 0.001, BAIAP2 (UniProt Q9UQB8) -0.03, BAG6 isoform 3 (UniProt P46379) 0.02, BPTF (UniProt Q12830) -0.018, BAG1 (UniProt Q99933) 0.019, BCL7B (UniProt Q9BQE9) -0.124, BCLAF1 (UniProt Q9NYF8) 0.01, BLOC1S5 (UniProt Q8TDH9) -0.006, BTN2A1 (UniProt Q7KYR7) 0.022, BAG5 isoform 2 (UniProt Q9UL15) -0.012, BCL2L2 isoform 2 (UniProt Q92843) 0.039, BRCA1 isoform 7 (UniProt P38398) -0.035, BRIX1 (UniProt Q8TDN6) 0.02, BCL7C isoform 2 (UniProt Q8WUZ0) -0.051, BTBD6 (UniProt Q96KE9) -0.042, BCOR (UniProt Q6W2J9) -0.049, BORCS5 (UniProt Q969J3) 0.029, BPHL (UniProt Q86WA6) -0.063, BET1 (UniProt O15155) 0.039, BNIP2 (UniProt J3KN59) -0.185, BORCS6 (UniProt Q96GS4) -0.01, BIRC5 (UniProt O15392) 0.039, BCAR1 isoform 6 (UniProt P56945) 0.041, BAG2 (UniProt O95816) 0.013, BARD1 (UniProt Q99728) 0.071, BTAF1 (UniProt O14981) -0.017, BSG (UniProt P35613) 0.014, BCAS2 (UniProt O75934) 0.017, BCKDHB (UniProt P21953) 0.065, BTF3L4 (UniProt Q96K17) 0.004, BID isoform 2 (UniProt P55957) -0.009, BCL2L13 (UniProt Q9BXK5) -0.016, BCKDK (UniProt O14874) -0.041, BLOC1S3 (UniProt Q6QNY0) 0.007
